PubChem BioAssay AID1259308 – NCATS | 2017

Aim: 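Candidate targets for better recombinant protein yield in mammalian cells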 (primary screen)
Cells: human HEK293 embryonic kidney cells stably expressing firefly luciferase (HEK-CMV-Luc2-Hygro)
Knock-down reagent: single siRNA against human genes, 0.8 pmol siRNA per well
Time to read-out: 72 h
Measured: 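Luciferase light (ONE-Glo) measured on one replicate plate set and viability (CellTiter-Glo) on the other, scaled to a negative control siRNA, with robust z-scores and luciferase per cell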
Reading the numbers: total luciferase, z-score: higher = more reporter protein produced
Rule for the call: 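An siRNA counts as active if its total luciferase robust z-score exceeds 3; genes with two or more such siRNAs out of three were retested with fresh siRNAs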
Calls: active = raised luciferase; inactive = no rise
The deposit covers about 59,000 reagents; this is a part drawn at random. Over the whole deposit, about 1,510 (2.6%) were called active. 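Calls use total luciferase alone and ignore viability, so some active siRNAs may act by altering cell number.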 Entries without a mark were called inactive. Reagents against one gene are numbered here. Not all columns of the deposit are shown. No sequences are given here.

| Gene | reagent | total luciferase, z-score |
| --- | --- | --- |
| LGI1 | 1 | 2.32 |
| LGI1 | 2 | 0.494 |
| LGI1 | 3 | -0.284 |
| IGIP | 1 | 0.842 |
| IGIP | 2 | 0.759 |
| IGIP | 3 | -0.72 |
| CIRBP-AS1 | 1 | -0.804 |
| CIRBP-AS1 | 2 | 0.325 |
| CIRBP-AS1 | 3 | -0.437 |
| TIGD5 | 1 | -0.0949 |
| TIGD5 | 2 | -0.407 |
| TIGD5 | 3 | 0.216 |

2 entries from above, ordered by “total luciferase, z-score”, ascending.
| Gene | reagent | total luciferase, z-score |
| --- | --- | --- |
| TIGD5 | 2 | -0.407 |
| TIGD5 | 1 | -0.0949 |

The listing continues.
| Gene | reagent | total luciferase, z-score |
| --- | --- | --- |
| PIGA | 1 | 1 |
| PIGA | 2 | -1.19 |
| PIGA | 3 | 0.436 |
| RRP8 | 1 | 0.238 |
| RRP8 | 2 | -0.343 |
| RRP8 | 3 | 0.0257 |
| DCAF10 | 1 | 0.129 |
| DCAF10 | 2 | -0.634 |
| DCAF10 | 3 | 0.262 |
| XPR1 | 1 | 1.05 |
| XPR1 | 2 | 3.92 (active) |
| XPR1 | 3 | -1.35 |
